Our source for the binding values is publication PMC12539243.

No constants are given. Whether binding was seen depends on the method and setting. Binding seen in cells or lysates may run through a third protein. Some results given as binding are weak or reduced against the parent protein; the word gives no strength. Where a sequence is shown, tags or fusion partners need not be part of it.

This experiment addresses SARS-CoV-2 ORF9B with C-terminal Twin-Strep tag (SARS-CoV-2) (UniProt P0DTD2). The experiment is described as follows: co-IP.

In the case of “HA-tagged SQSTM1 (from UniProt Q13501 1-440)”, the binding entry was “binds”.

B1: HA-tagged RBM19 (protein, UniProt Q9Y4C8 1-960)
chain: MSRLIVKNLPNGMKEERFRQLFAAFGTLTDCSLKFTKDGKFRKFGFIGFKSEEEAQKAQKHFNKSFIDTSRITVEFCKSFGDPAKPRAWSKHAQKPSQPKQPPKDSTTPEIKKDEKKKKVAGQLEKLKEDTEFQEFLSVHQRRAQAATWANDGLDAEPSKGKSKPASDYLNFDSDSGQESEEEGAGEDLEEEASLEPKAAVQKELSDMDYLKSKMVKAGSSSSSEEEESEDEAVHCDEGSEAEEEDSSATPVLQERDSKGAGQEQGMPAGKKRPPEARAETEKPANQKEPTTCHTVKLRGAPFNVTEKNVMEFLAPLKPVAIRIVRNAHGNKTGYIFVDFSNEEEVKQALKCNREYMGGRYIEVFREKNVPTTKGAPKNTTKSWQGRILGENEEEEDLAESGRLFVRNLPYTSTEEDLEKLFSKYGPLSELHYPIDSLTKKPKGFAFITFMFPEHAVKAYSEVDGQVFQGRMLHVLPSTIKKEASEDASALGSSSYKKKKEAQDKANSASSHNWNTLFMGPNAVADAIAQKYNATKSQVFDHETKGSVAVRVALGETQLVQEVRRFLIDNGVSLDSFSQAAAERSKTVILVKNLPAGTLAAQLQETFGHFGSLGRVLLPEGGITAIVEFLEPLEARKAFRHLAYSKFHHVPLYLEWAPVGVFSSTAPQKKKLQDTPSEPMEKDPAEPETVPDGETPEDENPTEEGADNSSAKMEEEEEEEEEEEESLPGCTLFIKNLNFDTTEEKLKEVFSKVGTVKSCSISKKKNKAGVLLSMGFGFVEYRKPEQAQKALKQLQGHVVDGHKLEVRISERATKPAVTLARKKQVPRKQTTSKILVRNIPFQAHSREIRELFSTFGELKTVRLPKKMTGTGTHRGFGFVDFLTKQDAKRAFNALCHSTHLYGRRLVLEWADSEVTLQALRRKTAAHFHEPPKKKRSVVLDEILEQLEGSDSDSEEQTLQL
For the molecule B1, the binding result is “binds”.

B2: HA-tagged RBM42 (protein, UniProt Q9BTD8 1-480)
chain: MAGAGPAPGLPGAGGPVVPGPGAGIPGKSGEERLKEMEAEMALFEQEVLGAPVPGIPTAVPAVPTVPTVPTVEAMQVPAAPVIRPIIATNTYQQVQQTLEARAAAAATVVPPMVGGPPFVGPVGFGPGDRSHLDSPEAREAMFLRRAAVAPQRAPILRPAFVPHVLQRADSALSSAAAGPRPMALRPPHQALVGPPLPGPPGPPMMLPPMARAPGPPLGSMAALRPPLEEPAAPRELGLGLGLGLKEKEEAVVAAAAGLEEASAAVAVGAGGAPAGPAVIGPSLPLALAMPLPEPEPLPLPLEVVRGLLPPLRIPELLSLRPRPRPPRPEPPPGLMALEVPEPLGEDKKKGKPEKLKRCIRTAAGSSWEDPSLLEWDADDFRIFCGDLGNEVNDDILARAFSRFPSFLKAKVIRDKRTGKTKGYGFVSFKDPSDYVRAMREMNGKYVGSRPIKLRKSMWKDRNLDVVRKKQKEKKKLGLR
As for B2, the binding entry was “binds”.

B3: HA-tagged RAVER1 (protein, UniProt Q8IY67 1-606)
chain: MAADVSVTHRPPLSPKSGAEVEAGDAAERRAPEEELPPLDPEEIRKRLEHTERQFRNRRKILIRGLPGDVTNQEVHDLLSDYELKYCFVDKYKGTAFVTLLNGEQAEAAINAFHQSRLRERELSVQLQPTDALLCVANLPPSLTQQQFEELVRPFGSLERCFLVYSERTGQSKGYGFAEYMKKDSAARAKSDLLGKPLGPRTLYVHWTDAGQLTPALLHSRCLCVDRLPPGFNDVDALCRALSAVHSPTFCQLACGQDGQLKGFAVLEYETAEMAEEAQQQADGLSLGGSHLRVSFCAPGPPGRSMLAALIAAQATALNRGKGLLPEPNILQLLNNLGPSASLQLLLNPLLHGSAGGKQGLLGAPPAMPLLNGPALSTALLQLALQTQGQKKPGILGDSPLGALQPGAQPANPLLGELPAGGGLPPELPPRRGKPPPLLPSVLGPAGGDREALGLGPPAAQLTPPPAPVGLRGSGLRGPLSHFYSGSPTSYFTSGLQAGLKQSHLSKAIGSSPLGSGEGLLGLSPGPNGHSHLLKVRAGGGDMQGWEAPAPQRPLTRPALPSVSRPHWAARNAALPTCCPRPSPAQKAAMWASTPRASAATTRTPT
As for B3, the binding result was “binds”.

B4: HA-tagged KNSTRN (protein, UniProt Q9Y448 1-316)
chain: MAAPEAPPLDRVFRTTWLSTECDSHPLPPSYRKFLFETQAADLAGGTTVAAGNLLNESEKDCGQDRRAPGVQPCRLVTMTSVVKTVYSLQPPSALSGGQPADTQTRATSKSLLPVRSKEVDVSKQLHSGGPENDVTKITKLRRENGQMKATDTATRRNVRKGYKPLSKQKSEEELKDKNQLLEAVNKQLHQKLTETQGELKDLTQKVELLEKFRDNCLAILESKGLDPALGSETLASRQESTTDHMDSMLLLETLQEELKLFNETAKKQMEELQALKVKLEMKEERVRFLEQQTLCNNQVNDLTTALKEMEQLLEM
In the case of B4, the binding result is recorded as “binds”.
